Source: the supplement of paper PMC10338343
± gives the standard deviation. The entries are a selection whose mix differs from that of the whole data set. The uncertainty is large for many entries.

The sequences below were run on MIWI (PIWIL1) piRISC loaded with piRNA #1 (30 nt) (assay: pre-steady-state target cleavage rate (min^-1); higher = faster piRNA-guided slicing of the target). Details: guide: piRNA #1 5'p-UGAGGUAGUAGGUUGUAUAGUAUCCAGAGG; auxiliary factor: 500 nM mouse GTSF1.
Procedure, shortened: (§1)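 The pre-steady-state cleavage rate was obtained by Cleave-'n-Seq with a burst-and-steady-state fit. A transcribed, DNA-blocked target RNA library (0.1 nM) was mixed with 1 nM active affinity-purified piRISC carrying one synthetic guide, with or without 500 nM GTSF1 partner protein, in HEPES–potassium acetate buffer at 33 °C for 0–8 or 0–960 min. Uncleaved targets were sequenced and normalised to depth and to weakly complementary targets, with three trials pooled and k3 capped at 0.0001 min^-1.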

Sequence | pre-steady-state target cleavage rate
GGAGACGAUACUAUACAACCUCUACCUCA | 0.00199 ± 0.0041
GGAGAGGAUACUAUACAACCUAUACCUCA | 0.00143 ± 0.004
GGACUGGAUACUAUACAACGCUACUACCUCA | 0.000331 ± 0.019
GGAGACCUAUGAUAACAACCUACAACCUCA | 0.000201 ± 0.012
GGAGAGGAUACUAUGCAACCUACUACCUCA | 1.62 ± 0.095
CCUGCUGGAUACUAUACAACCUACUACCUCA | 2.06 ± 0.12
GGACUGGAAACUAUACAACCUACUACCUCA | 1.44 ± 0.097
GGAGACCUAUGAUAUGUUCGUUCUACCUCA | 0.000208 ± 0.019
GGAGACCUAUGUAAACAACCUAGUACCUCA | 0.00189 ± 0.0025
GGAGACCUAUGAUUACAACCUACUACUUCA | 0.00236 ± 0.0027
GGAGACCUAUGUAAACAACCUACUACCUCA | 0.00247 ± 0.0033
GCUCGUGGAUACUAUACAACCUACUACCUCA | 1.85 ± 0.095
GGAGACCUAUGAUAAACAACCUACUACCUCA | 0.00237 ± 0.005
GCUUGGAUACUAUACAACCUACUACCUCA | 1.87 ± 0.12
GGUCUGGAUACUAUACGAACCUACUACCUCA | 0.00151 ± 0.0047
GGAGAGGAAACAAUACAACCUACUACCUCA | 0.95 ± 0.079
GGAGACCUAACUUUACUACCUACUACCUCA | 0.00226 ± 0.0052
GGAGACCUAUGAAUACAAUCUACUACCUCA | 0.000207 ± 0.015
GGUCAGGAUACUAUUCAACCUACUACCUCA | 1.79 ± 0.1
GGAGACCUAAAUAUACAACCUACUACCUCA | 0.106 ± 0.021

Sequence | pre-steady-state target cleavage rate
GGUCUGGAUACUAUACAACCUACUACCUCCA | 2.06 ± 0.12
GGAGACCUAUGAAAACAAGCUACUACCUCA | 0.00104 ± 0.005
GGAGACCUAUGUAUACAACCAUACUACCUCA | 0.00102 ± 0.0077
GGAGACCUAUGAUAACAACCUACUACCUGCA | 0.00114 ± 0.0053
GGAGACCUAUGUAUACAACGUAGUACCUCA | 0.00118 ± 0.004
CCUCUGGAUACUAUACAACCUACUACCUCG [g2:g30:cont:t1G] | 1.32 ± 0.094
GGAGACCUAUGAUUACAACUUACUACCUCA | 0.00136 ± 0.0034
GGAGACGAUACUAUACUAGCUACUACCUCA | 0.579 ± 0.048
GGAGACCUAUGAAUACAACCUACUACCUCC [g2:g18:cont:t1C] | 0.00183 ± 0.0028
GGACUCGAUACAAUACAACCUACUACCUCA | 1.46 ± 0.095
GGAGACCUAUGAUAUGUUUCUACUACCUCA | 0.000394 ± 0.012
GGAGACCUAUGAUUACAACCUACUACCUA | 0.00146 ± 0.0035
GGAGACCUAUGAAUACAACCUAUUACCUCA | 0.000362 ± 0.0088
GCUCUGGUUACUUUACAACCUACUACCUCA | 1.7 ± 0.089
GGAGUGGAUACUAUACAACACUACUACCUCA | 0.000749 ± 0.0084
GCUCUGGAUACCAUACAACCUACUACCUCA | 0.756 ± 0.059
GGAGACCUAUGAUUACAACCUACUCACCUCA | 0.00128 ± 0.0044
GGAGACCUAUGAUAACAAACUACUACCUCA | 0.000366 ± 0.0064
GGAGACCUAUGAUAUGUUGGUAUACCUCA | 0.000223 ± 0.018

These sequences were tested on EfPiwi piRISC loaded with piRNA #1 (26 nt) (assay: pre-steady-state target cleavage rate (min^-1); guide: piRNA #1 5'p-UGAGGUAGUAGGUUGUAUAGUAUCCA; MIWI and MILI are mouse PIWI proteins and EfPiwi is from a freshwater sponge; tags in brackets are library labels; higher = faster piRNA-guided slicing of the target). Details: auxiliary factor: 500 nM Ephydatia muelleri Gtsf1.
Procedure, shortened: as §1

Sequence | pre-steady-state target cleavage rate
GGAGAGGAUACUAUACAACCUAUACCUCA | 0.00469 ± 0.0024
GGAGACCUAUGAUAACAACCUACAACCUCA | 0.000818 ± 0.0088
GGAGAGGAUACUAUGCAACCUACUACCUCA | 0.242 ± 0.091
GGAGACCUAUGUAAACAACCUAGUACCUCA | 0.000981 ± 0.0083
GGAGACCUAUGAUUACAACCUACUACUUCA | 0.00206 ± 0.0058
GGAGACCUAUGUAAACAACCUACUACCUCA | 0.00236 ± 0.0042
GGAGACCUAUGAUAAACAACCUACUACCUCA | 0.00281 ± 0.0041
GGAGACCUAACUUUACUACCUACUACCUCA | 0.00117 ± 0.0066
GGAGACCUAUGAAAACAAGCUACUACCUCA | 0.00109 ± 0.01
GGAGACCUAUGUAUACAACCAUACUACCUCA | 0.00131 ± 0.009
GGAGACCUAUGAUAACAACCUACUACCUGCA | 0.000452 ± 0.016
GGAGACCUAUGAAUACAACCUACUACCUCC [g2:g18:cont:t1C] | 0.00214 ± 0.0041
GGAGACCUAUGAUAUGUUUCUACUACCUCA | 0.00168 ± 0.0034
GGAGACCUAUGAAUACAACCUAUUACCUCA | 0.00123 ± 0.0047
GGAGACCUAUGAUAACAAACUACUACCUCA | 0.000338 ± 0.01
